No constants are given. Whether binding was seen depends on the method and setting. In cells and extracts the contact can be indirect. Some entries that bind do so weakly or less than the wild type. For some assays here: Tags and fused reporters may be left off the sequences shown.
Legend:
[1] = target: IFT20 (human (endogenous in Jurkat)) (UniProt Q8IY31); experiment: co-IP; postnuclear supernatants (2 mg) of Jurkat T cells (control and IFT20KD; also IFT20-GFP or ΔCC IFT20-GFP transfectants) lysed in 0.5% Triton X-100, 20 mM Tris-HCl pH 8, 150 mM NaCl; IP 2 h at 4°C with anti-IFT20, anti-ATG16L1 or anti-BECLIN 1 antibody and protein A-Sepharose; immunoblot
IFT20-GST = IFT20-GST (UniProt Q8IY31); experiment: pull-down; recombinant GST fusion proteins on GSH-Sepharose incubated 2 h at 4°C with precleared postnuclear supernatants of Jurkat cells (5 x 10^7 cells/sample, 0.5% Triton X-100); 4 washes; immunoblot; only the target purified
ΔCC IFT20-GST = ΔCC IFT20-GST (UniProt Q8IY31); experiment: as above
CC IFT20-GST = target: T1, CC IFT20-GST (UniProt Q8IY31); experiment: as above
T1 sequence: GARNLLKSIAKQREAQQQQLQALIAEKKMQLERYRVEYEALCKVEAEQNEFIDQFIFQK

Sequences of proteins named here, by UniProt entry; tags and fusion partners are left off.
UniProt Q676U5: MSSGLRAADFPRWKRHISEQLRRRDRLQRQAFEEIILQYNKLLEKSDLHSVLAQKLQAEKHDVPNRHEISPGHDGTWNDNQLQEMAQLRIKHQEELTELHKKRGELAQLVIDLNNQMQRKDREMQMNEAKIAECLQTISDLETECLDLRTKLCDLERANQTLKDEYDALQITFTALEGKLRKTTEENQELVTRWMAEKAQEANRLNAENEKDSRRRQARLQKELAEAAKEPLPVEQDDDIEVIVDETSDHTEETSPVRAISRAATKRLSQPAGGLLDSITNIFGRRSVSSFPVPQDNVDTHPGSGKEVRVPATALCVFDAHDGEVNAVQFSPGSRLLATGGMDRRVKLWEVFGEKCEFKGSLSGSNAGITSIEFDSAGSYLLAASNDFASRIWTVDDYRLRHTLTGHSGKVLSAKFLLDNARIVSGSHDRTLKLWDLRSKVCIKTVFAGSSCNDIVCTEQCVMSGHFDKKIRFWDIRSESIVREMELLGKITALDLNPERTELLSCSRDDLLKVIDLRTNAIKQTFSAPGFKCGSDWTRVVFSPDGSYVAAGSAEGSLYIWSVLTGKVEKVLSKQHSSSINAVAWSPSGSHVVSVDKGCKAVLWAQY
UniProt Q15643: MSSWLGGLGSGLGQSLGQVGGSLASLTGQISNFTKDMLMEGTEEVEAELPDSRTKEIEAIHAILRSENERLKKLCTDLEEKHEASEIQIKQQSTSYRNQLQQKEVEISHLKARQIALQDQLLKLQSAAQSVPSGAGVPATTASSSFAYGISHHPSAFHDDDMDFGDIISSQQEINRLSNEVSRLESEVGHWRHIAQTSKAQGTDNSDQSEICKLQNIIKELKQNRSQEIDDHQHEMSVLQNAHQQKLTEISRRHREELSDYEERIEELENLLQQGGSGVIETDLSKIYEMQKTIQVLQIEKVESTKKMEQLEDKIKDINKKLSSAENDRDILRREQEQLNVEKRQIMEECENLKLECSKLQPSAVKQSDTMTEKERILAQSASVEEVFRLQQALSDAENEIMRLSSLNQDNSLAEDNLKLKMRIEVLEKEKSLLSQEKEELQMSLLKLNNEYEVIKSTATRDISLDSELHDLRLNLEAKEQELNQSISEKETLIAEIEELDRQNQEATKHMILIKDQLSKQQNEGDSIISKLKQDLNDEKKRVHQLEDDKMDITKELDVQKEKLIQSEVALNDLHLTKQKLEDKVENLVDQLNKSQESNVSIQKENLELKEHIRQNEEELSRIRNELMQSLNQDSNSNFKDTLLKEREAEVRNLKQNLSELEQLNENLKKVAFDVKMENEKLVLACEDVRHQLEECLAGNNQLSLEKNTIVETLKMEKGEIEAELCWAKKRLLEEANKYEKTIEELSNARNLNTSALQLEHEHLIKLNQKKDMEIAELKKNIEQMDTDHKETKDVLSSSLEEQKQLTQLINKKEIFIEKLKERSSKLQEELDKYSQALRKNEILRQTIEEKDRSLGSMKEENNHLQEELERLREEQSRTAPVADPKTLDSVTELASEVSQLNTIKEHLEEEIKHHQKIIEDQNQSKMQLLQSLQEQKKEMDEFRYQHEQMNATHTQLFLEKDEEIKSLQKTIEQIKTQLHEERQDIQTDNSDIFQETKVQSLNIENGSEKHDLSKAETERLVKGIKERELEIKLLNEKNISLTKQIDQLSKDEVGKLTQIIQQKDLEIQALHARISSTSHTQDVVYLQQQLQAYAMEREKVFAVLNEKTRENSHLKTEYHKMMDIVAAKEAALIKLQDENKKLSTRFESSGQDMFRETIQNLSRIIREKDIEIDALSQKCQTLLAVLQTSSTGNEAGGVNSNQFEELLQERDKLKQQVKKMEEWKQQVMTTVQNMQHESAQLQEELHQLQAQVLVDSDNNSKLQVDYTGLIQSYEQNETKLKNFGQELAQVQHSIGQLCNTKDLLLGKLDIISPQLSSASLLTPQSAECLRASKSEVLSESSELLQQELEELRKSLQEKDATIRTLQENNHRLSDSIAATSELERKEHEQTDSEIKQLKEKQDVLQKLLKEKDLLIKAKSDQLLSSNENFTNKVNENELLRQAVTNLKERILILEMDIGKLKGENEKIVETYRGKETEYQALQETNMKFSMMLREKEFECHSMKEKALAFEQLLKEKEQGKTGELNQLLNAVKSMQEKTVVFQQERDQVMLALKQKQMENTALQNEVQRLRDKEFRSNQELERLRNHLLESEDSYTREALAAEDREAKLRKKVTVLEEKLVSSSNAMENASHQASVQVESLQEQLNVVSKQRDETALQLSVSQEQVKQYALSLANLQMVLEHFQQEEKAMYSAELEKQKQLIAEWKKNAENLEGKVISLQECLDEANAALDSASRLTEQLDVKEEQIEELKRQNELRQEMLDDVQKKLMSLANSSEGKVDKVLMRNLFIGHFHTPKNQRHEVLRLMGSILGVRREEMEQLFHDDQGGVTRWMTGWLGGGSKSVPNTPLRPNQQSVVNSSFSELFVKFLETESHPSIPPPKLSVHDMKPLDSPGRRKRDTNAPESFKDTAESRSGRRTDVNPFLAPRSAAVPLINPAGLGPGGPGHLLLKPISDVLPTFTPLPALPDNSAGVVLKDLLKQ

binding [1]	binding (IFT20-GST)	binding (ΔCC IFT20-GST)	binding (CC IFT20-GST)	Substance
binds	binds	binds	–	ATG16L1 (from UniProt Q676U5 1-607)
–	binds	–	binds	GMAP210 (from UniProt Q15643 1-1979)

— PMC8019791
